No constants are given. Whether binding was seen depends on the method and setting. In cells and extracts the contact can be indirect. A yes stands for co-enrichment or nearness to the bait. Other partners may have been found.
T1: native KCC2 (K+-Cl- cotransporter KCC2) (mouse (endogenous in brain)) (UniProt Q91V14)
T1 sequence: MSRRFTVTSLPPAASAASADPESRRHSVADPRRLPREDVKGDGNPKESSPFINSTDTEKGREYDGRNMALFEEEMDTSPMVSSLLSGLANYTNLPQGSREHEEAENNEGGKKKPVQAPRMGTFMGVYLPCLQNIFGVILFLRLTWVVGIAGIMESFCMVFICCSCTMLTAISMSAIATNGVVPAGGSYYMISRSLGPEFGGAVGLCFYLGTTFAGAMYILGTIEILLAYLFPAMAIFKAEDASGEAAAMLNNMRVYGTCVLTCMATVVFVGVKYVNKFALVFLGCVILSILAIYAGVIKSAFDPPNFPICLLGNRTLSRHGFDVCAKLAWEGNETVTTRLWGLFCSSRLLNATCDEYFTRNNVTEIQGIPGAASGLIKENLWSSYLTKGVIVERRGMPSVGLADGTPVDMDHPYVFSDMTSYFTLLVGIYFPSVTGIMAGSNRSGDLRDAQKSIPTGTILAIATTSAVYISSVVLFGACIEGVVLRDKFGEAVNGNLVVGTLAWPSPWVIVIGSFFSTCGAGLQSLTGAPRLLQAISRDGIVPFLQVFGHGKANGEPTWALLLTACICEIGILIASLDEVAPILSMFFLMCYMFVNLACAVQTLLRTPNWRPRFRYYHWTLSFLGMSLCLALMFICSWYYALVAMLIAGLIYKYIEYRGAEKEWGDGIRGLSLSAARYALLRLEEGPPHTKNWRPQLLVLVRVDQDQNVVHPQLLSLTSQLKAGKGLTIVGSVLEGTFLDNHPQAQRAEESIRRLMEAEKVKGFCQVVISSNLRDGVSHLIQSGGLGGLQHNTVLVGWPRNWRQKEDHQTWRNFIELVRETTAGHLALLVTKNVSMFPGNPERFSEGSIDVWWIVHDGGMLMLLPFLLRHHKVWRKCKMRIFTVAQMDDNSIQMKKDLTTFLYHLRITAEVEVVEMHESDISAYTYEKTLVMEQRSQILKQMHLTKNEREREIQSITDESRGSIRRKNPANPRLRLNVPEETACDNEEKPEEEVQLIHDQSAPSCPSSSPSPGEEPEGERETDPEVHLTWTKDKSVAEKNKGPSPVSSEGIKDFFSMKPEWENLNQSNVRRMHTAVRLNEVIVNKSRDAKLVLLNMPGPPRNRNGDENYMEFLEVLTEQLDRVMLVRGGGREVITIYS

B1: TRIM3 (protein, UniProt Q9R1R2 1-744)
chain: MAKREDSPGPEVQPMDKQFLVCSICLDRYRCPKVLPCLHTFCERCLQNYIPPQSLTLSCPVCRQTSILPEQGVSALQNNFFISSLMEAMQQAPEGAHDPEDPHPLSAVAGRPLSCPNHEGKTMEFYCEACETAMCGECRAGEHREHGTVLLRDVVEQHKAALQRQLEAVRGRLPQLSAAIALVGGISQQLQERKAEALAQISAAFEDLEQALQQRKQALVSDLESICGAKQKVLQTQLDTLRQGQEHIGSSCSFAEQALRLGSAPEVLLVRKHMRERLAALAAQAFPERPHENAQLELVLEVDGLRRSVLNLGALLTTSATAHETVATGEGLRQALVGQPASLTVTTKDKDGRLVRTGSAELCAEITGPDGVRLAVPVVDHKNGTYELVYTARTEGDLLLSVLLYGQPVRGSPFRVRALRPGDLPPSPDDVKRRVKSPGGPGSHVRQKAVRRPSSMYSTGGKRKDNPIEDELVFRVGSRGREKGEFTNLQGVSAASSGRIVVADSNNQCIQVFSNEGQFKFRFGVRGRSPGQLQRPTGVAVDTNGDIIVADYDNRWVSIFSPEGKFKTKIGAGRLMGPKGVAVDRNGHIIVVDNKSCCVFTFQPNGKLVGRFGGRGATDRHFAGPHFVAVNNKNEIVVTDFHNHSVKVYSADGEFLFKFGSHGEGNGQFNAPTGVAVDSNGNIIVADWGNSRIQVFDSSGSFLSYINTSAEPLYGPQGLALTSDGHVVVADAGNHCFKAYRYLQ
B2: CANX (protein, UniProt P35564 21-591)
chain: HDGHDDDAIDIEDDLDDVIEEVEDSKSKSDASTPPSPKVTYKAPVPTGEVYFADSFDRGSLSGWILSKAKKDDTDDEIAKYDGKWEVDEMKETKLPGDKGLVLMSRAKHHAISAKLNKPFLFDTKPLIVQYEVNFQNGIECGGAYVKLLSKTAELSLDQFHDKTPYTIMFGPDKCGEDYKLHFIFRHKNPKTGVYEEKHAKRPDADLKTYFTDKKTHLYTLILNPDNSFEILVDQSVVNSGNLLNDMTPPVNPSREIEDPEDRKPEDWDERPKIADPDAVKPDDWDEDAPSKIPDEEATKPEGWLDDEPEYIPDPDAEKPEDWDEDMDGEWEAPQIANPKCESAPGCGVWQRPMIDNPNYKGKWKPPMIDNPNYQGIWKPRKIPNPDFFEDLEPFKMTPFSAIGLELWSMTSDIFFDNFIISGDRRVVDDWANDGWGLKKAADGAAEPGVVLQMLEAAEERPWLWVVYILTVALPVFLVILFCCSGKKQSNAMEYKKTDAPQPDVKDEEGKEEEKNKRDEEEEEEKLEEKQKSDAEEDGVTGSQDEEDSKPKAEEDEILNRSPRNRKPRRE
B3: MAG (protein, UniProt P20917 20-627)
chain: GHWGAWMPSTISAFEGTCVSIPCRFDFPDELRPAVVHGVWYFNSPYPKNYPPVVFKSRTQVVHESFQGRSRLLGDLGLRNCTLLLSTLSPELGGKYYFRGDLGGYNQYTFSEHSVLDIVNTPNIVVPPEVVAGTEVEVSCMVPDNCPELRPELSWLGHEGLGEPTVLGRLREDEGTWVQVSLLHFVPTREANGHRLGCQAAFPNTTLQFEGYASLDVKYPPVIVEMNSSVEAIEGSHVSLLCGADSNPPPLLTWMRDGMVLREAVAKSLYLDLEEVTPGEDGVYACLAENAYGQDNRTVELSVMYAPWKPTVNGTVVAVEGETVSILCSTQSNPDPILTIFKEKQILATVIYESQLQLELPAVTPEDDGEYWCVAENQYGQRATAFNLSVEFAPIILLESHCAAARDTVQCLCVVKSNPEPSVAFELPSRNVTVNETEREFVYSERSGLLLTSILTIRGQAQAPPRVICTSRNLYGTQSLELPFQGAHRLMWAKIGPVGAVVAFAILIAIVCYITQTRRKKNVTESSSFSGGDNPHVLYSPEFRISGAPDKYESEKQRLGSERRLLGLRGESPELDLSYSHSDLGKRPTKDSYTLTEELAEYAEIRVK
B4: MDH2 (protein, UniProt P08249 25-338)
chain: AKVAVLGASGGIGQPLSLLLKNSPLVSRLTLYDIAHTPGVAADLSHIETRANVKGYLGPEQLPDCLKGCDVVVIPAGVPRKPGMTRDDLFNTNATIVATLTAACAQHCPEAMVCIIANPVNSTIPITAEVFKKHGVYNPNKIFGVTTLDIVRANTFVAELKGLDPARVNVPVIGGHAGKTIIPLISQCTPKVDFPQDQLATLTGRIQEAGTEVVKAKAGAGSATLSMAYAGARFVFSLVDAMNGKEGVVECSFVQSKETECTYFSTPLLLGKKGLEKNLGIGKITPFEEKMIAEAIPELKASIKKGEDFVKNMK
B5: STOML2 (protein, UniProt Q99JB2 29-353)
chain: SSGLPRNTVILFVPQQEAWVVERMGRFHRILEPGLNVLIPVLDRIRYVQSLKEIVINVPEQSAVTLDNVTLQIDGVLYLRIMDPYKASYGVEDPEYAVTQLAQTTMRSELGKLSLDKVFRERESLNANIVDAINQAADCWGIRCLRYEIKDIHVPPRVKESMQMQVEAERRKRATVLESEGTRESAINVAEGKKQAQILASEAEKAEQINQAAGEASAVLAKAKAKAEAIRILAGALTQHNGDAAASLTVAEQYVSAFSKLAKDSNTVLLPSNPSDVTSMVAQAMGVYGALTKAPVPGAQNSSQSRRDVQATDTSIEELGRVKLS
B6: STRN3 (protein, UniProt Q9ERG2 1-796)
chain: MDELAGGGGGGQGMAAPPRPQQGPGGNLSLPPGANGAPGGGGPPAAEAAGPPAGPELSRPQQYTIPGILHYIQHEWARFEMERAHWEVERAELQARIAFLQGERKGQENLKKDLVRRIKMLEYALKQERAKYHKLKYGTELNQGDLKMPTFESEETKDVEAPPAPQNSQLTWKQGRQLLRQYLQEVGYTDTILDVRSQRVRSLLGLSNSEPNGSVEAKNLEQILNGGESPKQKGQEIKRPPGDVLETFNFLENADDSDEEENDMIEGIPEGKDKLRIHKHKIGNEGLAADLTDDPDTEEALKEFDFLVTAEDGEGAGEARSSGDGTEWDKDDLSPTAEVWDVDQGLISKLKEQYKKERKGKKGVKRVNRTNLCDMITDLGDDELPHIPSGIINQSRSASTRMADHEGARAEEAEPITFPSGGGKSFIMGSDDVLLSVLGLGDLADLTVTNDADYSYDLPANKDAFRKTWNPKYTLRSHFDGVRALAFHPVEPVLVTASEDHTLKLWNLQKTVPAKKSASLDVEPIYTFRAHIGPVLSLAISSNGEQCFSGGIDATIQWWNMPSPNVDPYDTYESNVLAGTLVAHTDAVWGLAYSGIKNQLLSCSADGTIRLWNPQEKLPCVCTYNGDKEHGIPTSVDFIGCDPAHMVTSFNTGSAVIYDLETSQSLVMLSSQVDSGLQSSNHINRVVSHPTLPVTITAHEDRHIKFFDNKTGKMIHSMVAHLDAVTSLAVDPNGIYLMSGSHDCSIRLWNLDSKTCVQEITAHRKKLDESIYDVAFHPSKAYIASAGADALAKVFV
B7: YWHAQ (protein, UniProt P68254 1-245)
chain: MEKTELIQKAKLAEQAERYDDMATCMKAVTEQGAELSNEERNLLSVAYKNVVGGRRSAWRVISSIEQKTDTSDKKLQLIKDYREKVESELRSICTTVLELLDKYLIANATNPESKVFYLKMKGDYFRYLAEVACGDDRKQTIENSQGAYQEAFDISKKEMQPTHPIRLGLALNFSVFYYEILNNPELACTLAKTAFDEAIAELDTLNEDSYKDSTLIMQLLRDNLTLWTSDSAGEECDAAEGAEN
B8: INA (protein, UniProt P46660 1-501)
chain: MSFGSEHYLCSASSYRKVFGDSSRLSARLSGPGGSGSFRSQSLSRSNVASTAACSSASSLGLGLAYRRLPASDGLDLSQAAARTNEYKIIRTNEKEQLQGLNDRFAVFIEKVHQLETQNRALEAELAALRQRHAEPSRVGELFQRELRELRAQLEEASSARAQALLERDGLAEEVQRLRARCEEESRGREGAERALKAQQRDVDGATLARLDLEKKVESLLDELAFVRQVHDEEVAELLATLQASSQAAAEVDVAVAKPDLTSALREIRAQYESLAAKNLQSAEEWYKSKFANLNEQAARSTEAIRASREEIHEYRRQLQARTIEIEGLRGANESLERQILELEERHSAEVAGYQDSIGQLESDLRNTKSEMARHLREYQDLLNVKMALDIEIAAYRKLLEGEETRFSTGGLSISGLNPLPNPSYLLPPRILSSTASKVSSAGLSLKKEEEEEEEEASKEVSKKTSKVGEGFEETLGEAVISTKKTGKSATEESTSSSQKM

Each binder was assayed against T1, native KCC2 (K+-Cl- cotransporter KCC2) (mouse (endogenous in brain)) (assay: affinity purification with mass spectrometry; anti-KCC2 antibodies (C-terminal, N-terminal KCC2b, pS940) cross-linked with DMP to GammaBind IgG beads; C12E9-solubilised whole-brain membrane fractions of P5 and P50 mice; 4 hr, 4°C; parallel IgG/IgY controls).

| Binder | binding |
| --- | --- |
| B1 | binds |
| B2 | binds |
| B3 | binds |
| B4 | binds |
| B5 | binds |
| B6 | binds |
| B7 | binds |
| B8 | binds |
